According to US20140051645A1 (Pieris, published 2014):
These are yes or no findings as the source states them, for the method shown. Some results given as binding are weak or reduced against the parent protein; the word gives no strength.

Target: T1, human CTLA-4-Fc (Chimerigen) (human, UniProt P16410 36-161, limits assumed)
T1 construct: Bought fusion protein; also called hCTLA4-Fc; not shown: It was captured by an anti-human IgG-Fc antibody
T1 sequence (looked up): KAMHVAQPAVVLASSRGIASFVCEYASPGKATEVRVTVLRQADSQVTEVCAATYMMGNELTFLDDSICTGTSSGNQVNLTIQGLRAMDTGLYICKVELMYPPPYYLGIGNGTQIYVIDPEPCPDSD
Test: screening ELISA of crude lysates: mutein captured by T7 mAb, limited soluble human CTLA4-Fc; in some cases competition ELISA with mAb BNI3
Experimental: Therein, NGAL variants equipped with a T7 detection tag (Novagen) as well as a Strep-tag II affinity tag (IBA) were soluble expressed in a 96 well microtiter plate using the E. coli strain TG1/F with phNGAL37 SEQ ID NO: 10. This vector corresponds to phNGAL15 SEQ ID NO: 11 as described in the following example 4 with an N-terminal T7 tag consisting of 11 amino acids ([…]). Lipocalin mutein expression was induced overnight at 22° C. at 700 rpm with anhydrotetracycline (0.2 μg/ml) at an OD₅₅₀ of 0.6. Afterwards, cells were lysed (100 mM Na-borate, pH 8.0, 80 mM NaCl, 1 mM EDTA, 0.025% w/v lysozyme) for 1 h under agitation. […]
In a reverse ELISA approach soluble expressed muteins from the crude cell lysate were captured via immobilized T7 mAb (5 μg/ml, Novagen) on wells of black Fluotrac 600 ELISA plates (Greiner; 384 well). […] Subsequently plates were washed five times and bound target was detected via an goat anti-human Fc monoclonal antibody-HRP conjugate (Jackson ImmunoResearch), diluted 1:5.000 in PBST/0.1. […] After 45 min of signal development at room temperature fluorescence was excited at a wavelength of 320 nm (±12.5 nm) and measured at 430 nm (±17.5 nm) in a GENiosPlus plate reader (Tecan). […]

binding: binds
B1: SEQ ID NO 12 (designed binder)
chain: MASMTGGQQMGQDSTSDLIPAPPLSKVPLQQNFQDNQFHGKWYVVGLAGNRLLRDDQHPMDMYATIYELKGDKSYNVTSVISSHKKCLYPIATFVPGSQPGEFTLGNIKSYGDKWSYLVRVVSTDYNQYAVVFFKHADTNYESFSITIYGRTKELASELKENFIRFSKSLGLPENHIVFPVPIDQCIDG
